Data: PubChem BioAssay AID493014 (National Center for Advancing Translational Sciences (NCATS), 2011)
Some of the results follow. The main result of the screen is listed elsewhere. These columns were measured beside it and carry no call. Most of these compounds were active or inconclusive in the main read-out, so they are no random draw. Potencies come from curve fits of mixed quality, noted in brackets.

Experiment: qHTS Assay to Find Inhibitors of Chronic Active B-Cell Receptor Signaling
Settings: ABC-DLBCL IkBa-CBG/CBR reporter, luminescence ratio (green luciferase fused to IkBa over red control in TMD8 lymphoma cells), 4 h
Method in brief: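 TMD8 human ABC-DLBCL cells with doxycycline-inducible IκBα–green luciferase fusion and unfused red luciferase, in 0.5% FBS medium; compounds up to 46 uM, 4 h at 37C. Green/red luminescence ratio, filter-overlap corrected, fitted to concentration-response curves.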

[1] = measured here: CBR red luminescence, cell number
[2] = measured here: IkBa-CBG green luminescence

| SMILES | AC50 [1] | AC50 [2] |
| --- | --- | --- |
| COc1ccc2nc(C)cc(N/N=C/c3ccc(F)cc3)c2c1 | 11.2 µM [falling, partial curve] |  |
| COc1cc(NC(=O)Cc2cccs2)ccc1-n1cnnn1 | 1.84 µM [rising, full curve, poor fit] |  |
| COc1cc(NC(=S)NC(=O)c2cc(C)cc(C)c2)ccc1NC(=O)c1cccs1 | 18.4 µM [rising, single point] |  |
| O=C(CC(O)(C(F)(F)F)C(F)(F)F)Nc1ccc(Cl)c(Cl)c1 | 2.59 µM [falling, full curve] |  |
| CC/C(=N/NC(=O)c1ccccc1)c1ccc(OCCN2CCOCC2)cc1 | 3.66 µM [falling, full curve] |  |
| Cc1ccc(NC2CCCN(C(=O)c3ccc4[nH]ccc4c3)C2)cc1C (centres undefined) | 35.5 µM [falling, single point] |  |
| Cc1cc(C)c2nc(SCCc3ccccc3)nc(C)c2c1 | 0.291 µM [rising, partial curve, poor fit] |  |
| O=C(Nc1nccs1)c1ccc(Cl)s1 | 13 µM [falling, partial curve, poor fit] |  |
| CCOC(=O)Cc1csc(NC(=O)Nc2ccc(OC(F)(F)F)cc2)n1 | 11.2 µM [falling, partial curve, poor fit] |  |
| CCc1cc(C(=O)O)c(NC(=O)/C=C/c2ccc(OC)cc2)s1 | 0.1 µM [rising, full curve, poor fit] |  |
| CCOC(=O)N1CCN(C(c2ccccc2)c2sc3nc(C)nn3c2O)CC1 (centres undefined) | 23.1 µM [rising, single point] |  |
| CCc1nn(-c2ccccc2)c2c1-c1cc(OC)c(OC)cc1C1(N2)C(=O)Nc2ccccc21 (centres undefined) | 0.366 µM [falling, full curve, poor fit] |  |
| Cc1ccsc1-c1nc(CSCC(=O)NCc2ccc3c(c2)OCO3)c(C)o1 | 29.1 µM [falling, single point] |  |
| COc1ccc(/C=C/C(=O)c2ccccc2)c(OC)c1 | 10 µM [falling, partial curve] |  |
| COc1ccc(OCCOCCN2CCOCC2)cc1 | 3.26 µM [falling, single point] |  |
| N#CCC(=O)N/N=C\c1cc(Br)ccc1OC/C=C/c1ccccc1 | 0.447 µM [rising, partial curve, poor fit] |  |
| O=C(C[n+]1ccc2ccccc2c1)c1ccc(NC(=O)c2ccccc2)cc1 | 35.5 µM [falling, single point] |  |
| Cc1ccc(S(=O)(=O)Nc2cccc3c2O[C@H](CN(C)Cc2ccc(-c4ccccc4)cc2)[C@@H](C)CN([C@H](C)CO)C3=O)cc1 | 20.6 µM [falling, partial curve, poor fit] |  |
| COc1ccc(CNC(=O)C/C(C)=N/NC(=O)c2cc(OC)cc(OC)c2)cc1 | 12.6 µM [falling, partial curve] | 11.2 µM [falling, partial curve] |
| Cc1cc(C)c(C)c(S(=O)(=O)N2C(=S)NC(=O)C2CC(C)C)c1C (centres undefined) | 0.0058 µM [falling, full curve, poor fit] |  |
| O=[N+]([O-])/C(C(Cl)=C(Cl)Cl)=C(\Nc1ccc(F)cc1)n1cncn1 | 18.4 µM [falling, single point] |  |

| SMILES | AC50 [1] | AC50 [2] |
| --- | --- | --- |
| O=Cc1c(NCCN2CCOCC2)c2ccccc2[nH]c1=O | 11.2 µM [falling, partial curve] |  |
| Cc1ccc(C(=O)NCCN2C3=NC[C@H](C(C)C)N3C[C@H]2Cc2ccc(O)cc2)cc1Br | 10 µM [falling, partial curve, poor fit] |  |
| O=c1cc(-c2c(F)c(F)c(F)c(F)c2F)oc2ccccc12 | 18.4 µM [falling, single point] |  |
| CCCN1C(=O)C(=O)c2cc(Cl)ccc21 | 18.4 µM [rising, partial curve] | 16.4 µM [falling, partial curve] |
| CC(C)c1ccc(CN(C)C(=O)c2ccc(S(=O)(=O)NCc3ccco3)cc2)cc1 | 3.66 µM [rising, partial curve, poor fit] |  |
| Cc1cccc(NC(=O)C(=O)NCC2CCCN2S(=O)(=O)c2cccs2)c1C (centres undefined) | 8.2 µM [falling, partial curve, poor fit] |  |
| O=S(=O)(Nc1cccc2ccccc12)c1cccs1 | 11.2 µM [rising, partial curve] |  |
| O=C(Nc1cccc(F)c1)c1ccc(CSc2ccccc2)o1 | 18.4 µM [falling, single point] |  |
| COc1ccc2c(c1)C(=O)[C@H](O)[C@@H](c1ccc(OC)c(Br)c1)O2 | 23.1 µM [rising, single point] | 20.6 µM [falling, single point] |
| Cn1cccc1/C=N/NC(=O)c1cc2ccccc2cc1O | 1.58 µM [falling, full curve] |  |
| COc1ccc(CC(=O)Nc2ccc(-c3ccc4nnc(C)n4n3)cc2)cc1OC | 3.98 µM [rising, full curve, poor fit] | 12.6 µM [falling, partial curve, poor fit] |
| Cc1ccsc1C(=O)OCc1cc(=O)n2ccsc2n1 | 1.84 µM [falling, full curve] |  |
| CC(NC(=S)Nc1ccccc1Cl)C(c1ccccc1)N1CCOCC1 (centres undefined) | 16.4 µM [falling, partial curve, poor fit] |  |
| Cn1c(-c2ccc(F)c(F)c2)cc2onc(-c3ccccc3)c2c1=O | 0.184 µM [rising, full curve] |  |
| Cc1nc(N=C(N)N)nc2ccccc12 | 15.8 µM [falling, partial curve, poor fit] |  |
| CSCCCNC(=S)Nc1ccc(N2CCOCC2)cc1 | 10 µM [rising, partial curve, poor fit] |  |
| CCCCCCNC(=O)CC(c1ccccc1)c1cc(Br)ccc1O (centres undefined) | 9.2 µM [falling, partial curve] | 18.4 µM [rising, partial curve, poor fit] |
| COC(=O)C1=C(N)c2c(F)cccc2C1(C#N)c1ccc(F)cc1 (centres undefined) | 0.326 µM [falling, partial curve, poor fit] |  |
| CC(C(=O)NC1(C#N)CCCCC1)N(C)CC(=O)Nc1ccc(Cl)c(Cl)c1 (centres undefined) | 0.184 µM [falling, full curve, poor fit] |  |
| CCCn1cnc2cc(NCc3cccs3)ccc21 | 7.94 µM [falling, partial curve] |  |
| O=[N+]([O-])c1cc(S(=O)(=O)NCCc2ccccn2)ccc1Cl | 16.4 µM [falling, single point] |  |

| SMILES | AC50 [1] | AC50 [2] |
| --- | --- | --- |
| Cc1ccc(C2=NNC(C(O)C(O)C(O)C(O)CO)S2)cc1 (centres undefined) | 6.51 µM [rising, full curve] |  |
| Cc1cc(C)c2oc(C(=O)N3CCN(Cc4ccccc4)CC3)cc(=O)c2c1 | 35.5 µM [falling, single point] |  |
| N#Cc1cc(C(=O)c2ccccc2O)cn(-c2nccs2)c1=O | 20.6 µM [falling, partial curve] |  |
| COc1ccc(CNC(=O)N[C@H](C(=O)O)C(C)C)cc1OC | 1.12 µM [rising, full curve, poor fit] |  |
| O/C(=C\c1nc2ccccc2nc1/C=C(\O)c1ccccc1)c1ccccc1 | 3.16 µM [falling, partial curve] |  |
| O=C(Nc1ccc(N2C(=O)C3C4C=CC(C4)C3C2=O)cc1)Nc1nnc(C(F)(F)F)s1 (centres undefined) | 18.4 µM [rising, single point] |  |
| CN(C)c1ccc(-n2cccc2/C=C/[N+](=O)[O-])cc1 | 5.62 µM [falling, full curve] | 35.5 µM [rising, partial curve, poor fit] |
| O=C(/C=C/c1ccccc1)N1CCOCC1 | 1.41 µM [rising, full curve] |  |
| Cc1nn(C)c(C(=O)NNC(=S)NCc2ccco2)c1Cl | 29.1 µM [falling, single point] | 23.1 µM [rising, partial curve, poor fit] |
| Nc1ncc(N=Nc2cc(C(=O)O)ccc2Cl)s1 | 20 µM [falling, single point] |  |
| CCc1ccc(N2C(=O)C(Cl)=C(N3CCOCC3)C2=O)cc1 | 8.2 µM [rising, partial curve, poor fit] |  |
| O=C(c1ccc2c(c1)OCCO2)C1CCN(C(=O)c2ccc(F)cc2)CC1 | 6.51 µM [rising, single point] |  |
| O=C(CCCN1C(=O)/C(=C\c2cccs2)SC1=S)Nc1cccnc1 | 6.51 µM [falling, partial curve] |  |
| O=C(CCc1ccccc1)NC(=S)Nc1cccc(C(=O)O)c1 | 17.8 µM [falling, partial curve, poor fit] |  |
| CCOC(=O)C1/C(=N\O)CC(C)(O)C(C(=O)OCC)C1c1ccc(N(C)C)cc1 (centres undefined) | 2.06 µM [rising, partial curve, poor fit] |  |
| COC(=O)c1c(NC(=O)Cc2ccccc2)sc(C)c1C | 11.6 µM [falling, partial curve, poor fit] |  |
| Cc1ccc(C(C(=O)NCC2CCCO2)N(Cc2ccccc2)C(=O)c2ccc(-c3ccccc3)[nH]2)o1 (centres undefined) |  | 23.1 µM [rising, partial curve, poor fit] |
| NCCCC[C@@H](C(=O)N1CCNCC1)n1cc(CCC(=O)O)nn1 | 0.562 µM [falling, full curve, poor fit] |  |
| O=C(Nc1ccccc1F)c1ccc2nc(N3C(=O)CCC3=O)sc2c1 | 0.562 µM [falling, full curve, poor fit] |  |
| CC(=O)Nc1ccc(NC(=O)C(C)OC(=O)c2cccc(S(=O)(=O)N3CCCCCC3)c2)cc1 (centres undefined) | 0.731 µM [rising, full curve, poor fit] |  |

Reprinted from above for reference:

| SMILES | AC50 [1] | AC50 [2] |
| --- | --- | --- |
| N#Cc1cc(C(=O)c2ccccc2O)cn(-c2nccs2)c1=O | 20.6 µM [falling, partial curve] |  |
| COc1ccc(CNC(=O)N[C@H](C(=O)O)C(C)C)cc1OC | 1.12 µM [rising, full curve, poor fit] |  |
| O/C(=C\c1nc2ccccc2nc1/C=C(\O)c1ccccc1)c1ccccc1 | 3.16 µM [falling, partial curve] |  |
| O=C(Nc1ccc(N2C(=O)C3C4C=CC(C4)C3C2=O)cc1)Nc1nnc(C(F)(F)F)s1 (centres undefined) | 18.4 µM [rising, single point] |  |
| CN(C)c1ccc(-n2cccc2/C=C/[N+](=O)[O-])cc1 | 5.62 µM [falling, full curve] | 35.5 µM [rising, partial curve, poor fit] |
| O=C(/C=C/c1ccccc1)N1CCOCC1 | 1.41 µM [rising, full curve] |  |
| Cc1nn(C)c(C(=O)NNC(=S)NCc2ccco2)c1Cl | 29.1 µM [falling, single point] | 23.1 µM [rising, partial curve, poor fit] |
| Nc1ncc(N=Nc2cc(C(=O)O)ccc2Cl)s1 | 20 µM [falling, single point] |  |
| CCc1ccc(N2C(=O)C(Cl)=C(N3CCOCC3)C2=O)cc1 | 8.2 µM [rising, partial curve, poor fit] |  |
| O=C(c1ccc2c(c1)OCCO2)C1CCN(C(=O)c2ccc(F)cc2)CC1 | 6.51 µM [rising, single point] |  |
| O=C(CCCN1C(=O)/C(=C\c2cccs2)SC1=S)Nc1cccnc1 | 6.51 µM [falling, partial curve] |  |
